Test results taken from publication PMC3652857, “A Cryptic Targeting Signal Creates a Mitochondrial FEN1 Isoform with Tailed R-Loop Binding Properties”.
These are yes or no findings as the source states them, for the method shown. Binding seen in cells or lysates may run through a third protein. Some entries that bind do so weakly or less than the wild type.

Chains of the proteins cited; added tags and fusions are not shown. Residues count along the entry.
UniProt P39748, residues 65-380: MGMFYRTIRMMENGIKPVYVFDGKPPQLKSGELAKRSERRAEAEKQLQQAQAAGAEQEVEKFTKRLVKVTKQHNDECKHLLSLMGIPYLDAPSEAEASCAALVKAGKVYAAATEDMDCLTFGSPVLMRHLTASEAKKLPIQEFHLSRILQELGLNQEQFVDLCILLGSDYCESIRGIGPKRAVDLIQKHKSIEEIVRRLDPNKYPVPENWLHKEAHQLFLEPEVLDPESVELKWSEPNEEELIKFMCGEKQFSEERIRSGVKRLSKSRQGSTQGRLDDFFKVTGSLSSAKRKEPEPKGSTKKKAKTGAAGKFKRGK

How the values were obtained:
[1] = molecular target: FENMIT.F (FLAG-tagged truncated FEN1 starting at M65) (human) (UniProt P39748); assay: condition: only cells not treated with ethidium bromide; co-IP; lysate of purified mitochondria from FENMIT.F-expressing HEK cells not treated with ethidium bromide (control); anti-FLAG M2 agarose beads, elution with Flag peptide; immunoblot of TFAM
[2] = molecular target: FENMIT.F (FLAG-tagged truncated FEN1 starting at M65) (human) (UniProt P39748); assay: co-IP; lysate of purified mitochondria from FENMIT.F-expressing HEK cells treated with ethidium bromide (100 ng/ml, 72 h); anti-FLAG M2 agarose beads, elution with Flag peptide; with or without RNase T1 (1000 units; 10 mM Tris pH 7.4, 5 mM EDTA, 300 mM NaCl); immunoblot of TFAM

B1: transcription factor A of mitochondria (TFAM) (protein, UniProt Q00059 43-246)
chain: SSVLASCPKKPVSSYLRFSKEQLPIFKAQNPDAKTTELIRRIAQRWRELPDSKKKIYQDAYRAEWQVYKEEISRFKEQLTPSQIMSLEKEIMDKHLKRKAMTKKKELTLLGKPKRPRSAYNVYVAERFQEAKGDSPQEKLKTVKENWKNLSDSEKELYIQHAKEDETRYHNEMKSWEEQMIEVGRKDLLRRTIKKQRKYGAEEC
[1]
  binding: no binding
[2]
  binding: binds weakly
